From PMC5709618
These are yes or no findings as the source states them, for the method shown. In cells and extracts the contact can be indirect. These calls come from enrichment with a bait or labelling near it, and not all partners need be listed.

The chains behind the UniProt entries cited, without tags or fusion partners.
UniProt Q13131: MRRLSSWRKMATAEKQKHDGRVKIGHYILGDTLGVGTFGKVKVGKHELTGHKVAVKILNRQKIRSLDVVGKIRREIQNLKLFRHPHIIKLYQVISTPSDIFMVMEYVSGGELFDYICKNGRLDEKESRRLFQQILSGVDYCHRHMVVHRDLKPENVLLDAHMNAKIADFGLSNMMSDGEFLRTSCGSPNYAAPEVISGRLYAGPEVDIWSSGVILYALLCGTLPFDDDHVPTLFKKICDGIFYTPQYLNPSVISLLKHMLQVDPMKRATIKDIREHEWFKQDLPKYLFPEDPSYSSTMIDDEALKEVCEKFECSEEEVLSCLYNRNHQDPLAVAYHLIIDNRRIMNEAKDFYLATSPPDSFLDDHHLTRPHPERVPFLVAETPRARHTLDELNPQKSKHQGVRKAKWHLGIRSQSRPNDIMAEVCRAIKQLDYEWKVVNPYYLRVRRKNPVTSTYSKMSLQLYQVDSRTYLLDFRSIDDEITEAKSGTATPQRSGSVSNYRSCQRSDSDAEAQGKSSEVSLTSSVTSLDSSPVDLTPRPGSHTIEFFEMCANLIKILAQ
UniProt Q7L0R7: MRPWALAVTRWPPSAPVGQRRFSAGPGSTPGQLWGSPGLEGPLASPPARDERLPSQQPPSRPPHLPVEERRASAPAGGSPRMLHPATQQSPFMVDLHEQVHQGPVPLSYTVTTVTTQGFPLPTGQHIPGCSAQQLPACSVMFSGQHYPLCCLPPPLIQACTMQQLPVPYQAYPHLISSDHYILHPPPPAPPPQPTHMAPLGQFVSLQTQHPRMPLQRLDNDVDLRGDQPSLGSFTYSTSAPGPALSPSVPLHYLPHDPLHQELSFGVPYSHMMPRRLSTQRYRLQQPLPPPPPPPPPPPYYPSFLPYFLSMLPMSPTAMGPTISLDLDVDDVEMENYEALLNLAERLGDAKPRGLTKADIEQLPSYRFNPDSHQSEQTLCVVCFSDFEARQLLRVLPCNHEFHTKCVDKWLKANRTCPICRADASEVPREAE

Biological target: AMPK-α1 (human (endogenous in melanoma cell lines)) (UniProt Q13131)
Experiment: affinity purification with mass spectrometry; anti-AMPK-α1 immunoprecipitates of A2058 (Cy3) and A2058BR (Cy5) cells; 2D-DIGE and MALDI-TOF MS, MASCOT search

binding: binds
Substance: RING finger 44 (RNF44) (from UniProt Q7L0R7 1-432)
